Screening data, single-dose tests

Chains of the proteins cited; added tags and fusions are not shown.
UniProt P9WPC5, whole entry: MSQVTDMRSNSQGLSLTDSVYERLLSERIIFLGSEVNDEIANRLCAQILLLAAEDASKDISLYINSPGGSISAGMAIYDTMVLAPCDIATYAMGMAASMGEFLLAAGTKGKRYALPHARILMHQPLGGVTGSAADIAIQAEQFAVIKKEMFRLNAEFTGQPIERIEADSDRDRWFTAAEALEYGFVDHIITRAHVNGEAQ
UniProt P9WPC3, whole entry partner: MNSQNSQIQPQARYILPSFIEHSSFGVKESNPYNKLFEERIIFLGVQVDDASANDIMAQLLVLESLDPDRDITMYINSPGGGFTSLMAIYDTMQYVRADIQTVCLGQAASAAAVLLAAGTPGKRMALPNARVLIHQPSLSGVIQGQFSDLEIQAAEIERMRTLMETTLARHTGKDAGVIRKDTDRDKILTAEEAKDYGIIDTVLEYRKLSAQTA
UniProt I6X8D2, whole entry: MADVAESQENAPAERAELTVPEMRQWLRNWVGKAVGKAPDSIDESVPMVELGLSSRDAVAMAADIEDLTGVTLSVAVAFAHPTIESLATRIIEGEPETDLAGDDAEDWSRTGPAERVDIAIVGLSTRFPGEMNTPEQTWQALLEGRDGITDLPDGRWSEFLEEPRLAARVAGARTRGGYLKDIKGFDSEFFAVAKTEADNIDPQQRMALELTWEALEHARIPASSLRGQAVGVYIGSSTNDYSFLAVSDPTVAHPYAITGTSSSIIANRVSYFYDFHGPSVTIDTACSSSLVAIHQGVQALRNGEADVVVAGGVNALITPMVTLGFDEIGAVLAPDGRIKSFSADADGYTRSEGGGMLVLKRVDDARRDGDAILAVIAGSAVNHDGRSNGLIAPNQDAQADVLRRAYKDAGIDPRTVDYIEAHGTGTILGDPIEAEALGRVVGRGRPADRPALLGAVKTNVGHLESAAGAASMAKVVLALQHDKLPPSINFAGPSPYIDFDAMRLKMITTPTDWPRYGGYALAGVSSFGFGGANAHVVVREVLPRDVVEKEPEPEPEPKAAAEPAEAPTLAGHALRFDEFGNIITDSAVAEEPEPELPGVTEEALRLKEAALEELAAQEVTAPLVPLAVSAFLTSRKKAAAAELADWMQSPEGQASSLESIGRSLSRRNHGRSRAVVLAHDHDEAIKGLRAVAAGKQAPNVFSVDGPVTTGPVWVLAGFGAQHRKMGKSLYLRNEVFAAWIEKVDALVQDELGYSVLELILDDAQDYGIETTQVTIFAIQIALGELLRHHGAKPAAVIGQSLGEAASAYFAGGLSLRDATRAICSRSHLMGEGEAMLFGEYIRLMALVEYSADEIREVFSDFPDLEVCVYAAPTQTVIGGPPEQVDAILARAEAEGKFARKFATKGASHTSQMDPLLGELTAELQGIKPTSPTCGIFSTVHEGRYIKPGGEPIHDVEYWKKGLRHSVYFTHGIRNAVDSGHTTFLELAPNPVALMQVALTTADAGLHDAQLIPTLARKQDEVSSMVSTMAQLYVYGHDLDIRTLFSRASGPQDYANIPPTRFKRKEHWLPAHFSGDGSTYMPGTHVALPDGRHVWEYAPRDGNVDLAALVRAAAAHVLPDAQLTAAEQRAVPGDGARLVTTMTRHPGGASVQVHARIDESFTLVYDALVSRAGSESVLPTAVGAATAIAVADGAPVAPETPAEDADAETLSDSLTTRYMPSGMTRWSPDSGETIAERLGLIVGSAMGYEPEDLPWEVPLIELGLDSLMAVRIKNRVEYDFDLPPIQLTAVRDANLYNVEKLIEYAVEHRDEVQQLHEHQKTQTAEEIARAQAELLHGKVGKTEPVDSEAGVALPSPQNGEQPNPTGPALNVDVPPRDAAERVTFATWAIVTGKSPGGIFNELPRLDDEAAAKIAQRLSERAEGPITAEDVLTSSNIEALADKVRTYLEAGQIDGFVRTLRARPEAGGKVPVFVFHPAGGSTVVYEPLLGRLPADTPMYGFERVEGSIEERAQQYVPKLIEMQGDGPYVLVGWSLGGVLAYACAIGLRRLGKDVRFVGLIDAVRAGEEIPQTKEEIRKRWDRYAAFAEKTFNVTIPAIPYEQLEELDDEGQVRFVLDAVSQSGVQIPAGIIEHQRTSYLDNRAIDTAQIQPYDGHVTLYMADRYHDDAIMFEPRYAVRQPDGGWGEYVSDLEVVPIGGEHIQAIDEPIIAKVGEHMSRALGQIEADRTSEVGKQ
UniProt P9WFT3, whole entry: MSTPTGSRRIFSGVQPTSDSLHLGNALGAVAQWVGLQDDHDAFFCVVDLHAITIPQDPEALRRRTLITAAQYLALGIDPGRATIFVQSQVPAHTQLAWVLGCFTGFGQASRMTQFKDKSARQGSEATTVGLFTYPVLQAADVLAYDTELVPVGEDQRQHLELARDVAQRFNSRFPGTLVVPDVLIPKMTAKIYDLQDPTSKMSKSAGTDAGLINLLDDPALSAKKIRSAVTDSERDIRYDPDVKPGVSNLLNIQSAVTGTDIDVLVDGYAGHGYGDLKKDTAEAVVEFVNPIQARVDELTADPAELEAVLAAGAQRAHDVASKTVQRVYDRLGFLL

From ChEMBL document CHEMBL3988442, “University of Dundee, Small-Polar-MMV Screening Library” (2021).

Values are the deposited “Percent Effect”, in %.
The record does not define 0% and 100%; most values in the screen are far below 50% and negative numbers occur (in some assays of this library far below -100).
Compounds were drawn at random from those tested, without regard to their results.
A dash means the value is not listed here; it may have been measured.

ClpP1P2: 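ClpP1P2, Mycobacterium tuberculosis (UniProt P9WPC5 and UniProt P9WPC3). Protease assay of ClpP1P2, read by the AMC dye that it sets free. Compounds at 50 µM. Direction is inferred from only a few compounds that gave an IC50; most scored high, so higher reads as stronger inhibition. Most other retested compounds had strongly negative values. Size under these conditions: about 69,000 compounds, about 10 of them at 50% or above in at least one test.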
Pks13 thioesterase: 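Enzyme assay of the thioesterase domain of polyketide synthase 13; the read-out is not stated. Target: Polyketide synthase Pks13, Mycobacterium tuberculosis (UniProt I6X8D2). Tested at 30 µM. The record gives no direction; the compounds picked for IC50 retests had high values, so higher reads as stronger inhibition. Size under these conditions: about 67,000 compounds, about 300 of them at 50% or above in at least one test.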
MtTrpRS: 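Enzyme assay of tryptophanyl-tRNA synthetase; the read-out is not stated. Target: Tryptophan-tRNA ligase, Mycobacterium tuberculosis (UniProt P9WFT3). Tested at 10 µM. Direction is not recorded; retested compounds ran higher, which suggests that high means inhibition. Of about 65,000 compounds tested this way, about 64 (0.098%) reached 50% or more in at least one test.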

SMILES,ClpP1P2,Pks13 thioesterase,MtTrpRS
Cc1ccc(C(=O)NS(=O)(=O)c2ccc3c(c2)OCCCO3)o1,4.521%,-23.62%,0.8738%
CCc1ccc(NC(=O)C(C)Nc2cccc3c2OCCO3)cc1 (stereo not shown),-1.674%,8.271%,-2.825%
CC(=O)c1ccc(C(=O)Nc2ccnc(N(C)C)n2)cc1,-4.109%,-8.011%,1.624%
CN1CCCN(C(=O)c2cc3c(s2)CCN3C(=O)C2CC2)CC1,2.802%,-23.9%,-3.427%
CC(c1ccccn1)N(C)C(=O)CN1CCN(c2ccccn2)CC1 (stereo not shown),-7.601%,-14.83%,0.899%
c1csc(CN2CCc3ncnc(C4CCOC4)c3CC2)c1 (stereo not shown),-2.332%,-24.32%,-5.297%
COc1ccc2c(ccn2CCC(=O)Nc2n[nH]c(C(C)C)n2)c1,7.02%,27.04%,0.9646%
CC(C)C(NC(=O)Nc1ccc(F)cc1)C(=O)N(C)C (stereo not shown),9.21%,-11.64%,-4.238%
Cc1ccc(CC(=O)Nc2cc(C(C)C)n[nH]2)cn1,-12.42%,-3.959%,-1.753%
Cc1nc(NCCC23CCCN2CCC3)cc(C2CCCNC2)n1 (stereo not shown),1.094%,-4.093%,3.249%
O=C(Cc1ccc2c(c1)CCO2)N1CCN(c2nccs2)CC1,-15.53%,-1.988%,-15.64%
CN(Cc1csc(-c2ccccc2)n1)Cc1ncccc1C(=O)O,-0.2234%,-8.646%,-0.07262%
CCc1cc(=O)n(CC(=O)N2CCCCC2)c(-c2cccc(F)c2)n1,-21.21%,-24.09%,0.3819%
c1cnn(CC2CCCN2c2ncnc3ccsc23)c1 (stereo not shown),-2.095%,-6.848%,-3.401%
Cn1c(CN2CCOC(CCc3ccncn3)C2)nc2ccccc21 (stereo not shown),0.2897%,-6.469%,-1.217%
CC(C)S(=O)(=O)N1CCC(c2cc3n(n2)[C@@H](C(F)(F)F)C[C@@H](C)N3)CC1,-10.98%,-6%,-
CCC(CC)NC(=O)NCc1ccnc(-n2ccnc2C)c1,10.47%,-7.377%,-3.681%
COC(C)c1cccc(NC(=O)N(CCC#N)Cc2ccccn2)c1 (stereo not shown),0.7736%,-45.74%,1.421%
CC(C)NC(=O)c1cc(-c2ccc(S(C)(=O)=O)cc2)c2cnn(C)c2n1,7.19%,-28.23%,-5.964%
Cc1cnccc1N1CCCN(C(=O)CCCc2cn[nH]c2)CC1,-8.728%,-74.03%,-2.78%
Cc1sc2c(C3CCNCC3)nc(Nc3cccc(F)c3)n2c1C,0.4428%,-9.967%,3.776%
Cc1nc(CN2CCOC(Cn3cccn3)C2)nc2ccccc12 (stereo not shown),-52.38%,-9.22%,0.1254%
Cc1nc(C)n(C2CCCN(C(=O)CCn3ccnn3)C2)n1 (stereo not shown),-12.21%,-5.12%,3.163%
O=C(NCCCO)C1(N2CCCCC2)Cc2ccccc2C1,-9.584%,-29.6%,-3.765%
NC(=O)CCn1nnc(-c2cc3ccccc3o2)n1,4.77%,-17.94%,2.16%
CNC(=O)CN1CCOCC2(CCCN(CCc3ccccc3)C2)C1 (stereo not shown),1.112%,-,-2.985%
CC(C)(C)c1cn(CC2CCCN(c3cnc4ccccc4n3)C2)nn1 (stereo not shown),-10.66%,-24.59%,2.514%
Cc1cnn(CCNCC(=O)NCC2(c3ccccc3)CC2)c1,-20.81%,28.19%,10.41%
CCCN1CCC2(CC1)COc1ccccc1S(=O)(=O)N(CC1CC1)C2,-3.514%,5.81%,0.8299%
CNc1ncc(CN(C)C(=O)[C@@]23CNC[C@@H]2CN(C2CCCC2)C3)cn1,-5.326%,2.976%,2.974%
COc1ccccc1CNC(=O)N1CCCC(CO)C1 (stereo not shown),10.81%,-31.83%,-3.01%
CCOCCC(=O)Nc1cc(C)cnc1OC,-4.933%,8.897%,12.18%
CN(C)C(=O)CN1CCC2(C1)CN(CC1CCOC1)C2 (stereo not shown),7.637%,6.402%,13.6%
Cc1ncsc1CNCC(C)c1nc2ccccc2o1 (stereo not shown),-10.21%,-4.315%,-8.547%
CN(C)CCN(C)C(=O)Cc1ccc2c(c1)OCCO2,-4.962%,9.126%,-
CCc1ccc(NC(=O)c2cnc(N3CCCC3)nc2C)cc1,-6.705%,-0.6199%,2.022%
COc1ccccc1C(=O)C1CCCN(c2cc(C#N)ccn2)C1 (stereo not shown),-21.08%,49.21%,-2.853%
CN1CCN(C(=O)[C@@H]2CCO[C@@H]3CCN(c4ncccn4)C[C@@H]32)CC1,1.953%,-7.455%,1.364%
O=C(C1CCOc2ccccc21)N1CCOc2ccc(F)cc21 (stereo not shown),-2.9%,-22.94%,-3.725%
Cc1ccc(CN(C)C(=O)CCn2c(=O)n(C)c3ccccc32)o1,-11.67%,-,-1.077%
CN1[C@H](Cn2cccn2)C[C@@H]2CN(Cc3cccs3)CC[C@@H]21,-10.42%,-34.8%,20.02%
Cn1ncc(C(=O)OCC2CC(=O)N(c3ccccc3)C2)c1C(F)F (stereo not shown),-10.32%,-25.7%,4.595%
COCCN1C[C@@H](C)[C@@]2(COCCN(C(=O)c3cccs3)C2)C1,-5.934%,1.505%,-5.483%
CCOCC(=O)Nc1ccc(-n2ccc(C(N)=O)n2)cc1,-5.385%,-13.02%,8.477%
c1cc(CN2CCC[C@@H](Cn3nnc(-c4cnccn4)n3)C2)ccn1,-9.921%,-3.657%,-2.546%
Nc1nc2c(c3c1C(=O)NC3=O)CCCC2,-2.013%,11.75%,-3.661%
CNCc1n[nH]c(=O)n1-c1ccccc1Oc1ccccc1,-2.597%,-5.257%,-2.84%
COC(=O)c1cccc2nc([C@H]3CCN(C4CCN(C)CC4)C3)oc12,2.101%,-6.957%,-2.67%
O=C(O)c1cc2c(nc1-c1ccsc1)CCN(C1CCOC1)CC2 (stereo not shown),-16.27%,-27.13%,-0.3236%
CC1=N[C@@]2(CC[C@@H]3CN(S(=O)(=O)N(C)C)C[C@@H]32)C(=O)N1CC(C)C,3.117%,-11.27%,-0.08719%
CN1CCCCC1c1nc(Cc2cccc(F)c2)no1 (stereo not shown),-10.96%,-32.17%,-4.056%
Cc1cc(F)cc2c(N3CCC(S(N)(=O)=O)CC3)c(C#N)cnc12,-4.927%,-16.15%,-4.748%
CN(C)c1cccc(CNC(=O)Nc2cc(C#N)ccc2Cl)n1,-7.112%,-11.75%,-2.861%
O=S(=O)(CC1CCCCC1)NCc1ccnc(O)c1,-0.2321%,-16.73%,7.627%
COCC1CC2(CCN(C(=O)c3ccc(F)c(Cl)c3)CC2)CO1 (stereo not shown),-0.8113%,11.43%,54.79%
CN(Cc1cc(C(C)(C)C)n[nH]1)C(=O)c1cn2ccsc2n1,5.272%,-2.54%,1.028%
Cc1c(Cl)cccc1NC(=O)N1CCN(Cc2ccccn2)CC1,-6.874%,-15.79%,5.161%
COCC(=O)N1CC[C@@H]2O[C@H](COCc3csc(C)n3)CC[C@@H]21,-3.045%,-16.14%,-5.679%
N#Cc1c(Cl)nsc1NCc1cccnc1OC1CCCC1,-7.74%,36.6%,0.3856%
O=C(CN1CCc2cncnc2C1)NC1CCCCNC1=O (stereo not shown),-5.826%,10.86%,-4.563%
COCc1nc(CN2CCOC(CNc3cccnn3)C2)cs1 (stereo not shown),-25.07%,-4.935%,1.467%
COc1cccc(-c2n[nH]cc2CNCC2CCS(=O)(=O)C2)c1 (stereo not shown),5.454%,-52.76%,-7.554%
CN(C)Cc1nc(C2(NC(=O)Nc3cccc(F)c3)CCCC2)no1,0.3337%,-10.63%,-2.523%
Cc1ccc(C(=O)NCCNCC2CNc3ccnn3C2)cc1F (stereo not shown),-11.61%,10.32%,-5.732%
COc1ccc2c(=O)n(CC3CCCCN3C)ccc2c1OC (stereo not shown),3.896%,-10.46%,-5.045%
Cc1cc(CN2CCN(C(=O)C3CCC3)[C@@H]3CS(=O)(=O)C[C@@H]32)ccc1F,-9.551%,-51.9%,1.687%
Cc1nc(C)n(CC2CCCCN2CC(=O)NCc2ccccn2)n1 (stereo not shown),14.7%,3.338%,-0.9517%

Some entries from above, unchanged:

| SMILES | ClpP1P2 | Pks13 thioesterase | MtTrpRS |
|---|---|---|---|
| `CC(c1ccccn1)N(C)C(=O)CN1CCN(c2ccccn2)CC1` (stereo not shown) | -7.601% | -14.83% | 0.899% |
| `COc1ccc2c(ccn2CCC(=O)Nc2n[nH]c(C(C)C)n2)c1` | 7.02% | 27.04% | 0.9646% |
| `c1cnn(CC2CCCN2c2ncnc3ccsc23)c1` (stereo not shown) | -2.095% | -6.848% | -3.401% |
| `CNc1ncc(CN(C)C(=O)[C@@]23CNC[C@@H]2CN(C2CCCC2)C3)cn1` | -5.326% | 2.976% | 2.974% |
| `COCc1nc(CN2CCOC(CNc3cccnn3)C2)cs1` (stereo not shown) | -25.07% | -4.935% | 1.467% |
| `Cc1cc(F)cc2c(N3CCC(S(N)(=O)=O)CC3)c(C#N)cnc12` | -4.927% | -16.15% | -4.748% |